Measured values from patent US20090203581 (published 2009).

Experiment: general procedure: Fmoc solid-phase peptide synthesis; Fmoc-Rink resin (4-(2',4'-dimethoxyphenyl-Fmoc-aminomethyl)-phenoxypolystyrene resin, Bachem D-2080; 0.47 mmol/g); HOBt ester (HOAt with DIPEA for Fmoc-Glu(2-phenylisopropyloxy)-OH)
Conditions: whole synthesis, hydrochloride

## 16-(tetrazol-5-yl)hexadecanoyl-Gly-Thr-Gln-His-Ser-NIe-c[Glu-Hyp-D-Phe-Arg-Trp-Lys]-NH2
UV 214 nm, scale of the general procedure 0.10 mmol
  final HPLC purity: 100% purity
Scale 0.10 mmol
  isolated mass: 27.8 mg
  isolated yield: 16% yield
